We go through five substances from publication PMC11982335.

The chains behind the UniProt entries cited, without tags or fusion partners.
UniProt Q9NRL2: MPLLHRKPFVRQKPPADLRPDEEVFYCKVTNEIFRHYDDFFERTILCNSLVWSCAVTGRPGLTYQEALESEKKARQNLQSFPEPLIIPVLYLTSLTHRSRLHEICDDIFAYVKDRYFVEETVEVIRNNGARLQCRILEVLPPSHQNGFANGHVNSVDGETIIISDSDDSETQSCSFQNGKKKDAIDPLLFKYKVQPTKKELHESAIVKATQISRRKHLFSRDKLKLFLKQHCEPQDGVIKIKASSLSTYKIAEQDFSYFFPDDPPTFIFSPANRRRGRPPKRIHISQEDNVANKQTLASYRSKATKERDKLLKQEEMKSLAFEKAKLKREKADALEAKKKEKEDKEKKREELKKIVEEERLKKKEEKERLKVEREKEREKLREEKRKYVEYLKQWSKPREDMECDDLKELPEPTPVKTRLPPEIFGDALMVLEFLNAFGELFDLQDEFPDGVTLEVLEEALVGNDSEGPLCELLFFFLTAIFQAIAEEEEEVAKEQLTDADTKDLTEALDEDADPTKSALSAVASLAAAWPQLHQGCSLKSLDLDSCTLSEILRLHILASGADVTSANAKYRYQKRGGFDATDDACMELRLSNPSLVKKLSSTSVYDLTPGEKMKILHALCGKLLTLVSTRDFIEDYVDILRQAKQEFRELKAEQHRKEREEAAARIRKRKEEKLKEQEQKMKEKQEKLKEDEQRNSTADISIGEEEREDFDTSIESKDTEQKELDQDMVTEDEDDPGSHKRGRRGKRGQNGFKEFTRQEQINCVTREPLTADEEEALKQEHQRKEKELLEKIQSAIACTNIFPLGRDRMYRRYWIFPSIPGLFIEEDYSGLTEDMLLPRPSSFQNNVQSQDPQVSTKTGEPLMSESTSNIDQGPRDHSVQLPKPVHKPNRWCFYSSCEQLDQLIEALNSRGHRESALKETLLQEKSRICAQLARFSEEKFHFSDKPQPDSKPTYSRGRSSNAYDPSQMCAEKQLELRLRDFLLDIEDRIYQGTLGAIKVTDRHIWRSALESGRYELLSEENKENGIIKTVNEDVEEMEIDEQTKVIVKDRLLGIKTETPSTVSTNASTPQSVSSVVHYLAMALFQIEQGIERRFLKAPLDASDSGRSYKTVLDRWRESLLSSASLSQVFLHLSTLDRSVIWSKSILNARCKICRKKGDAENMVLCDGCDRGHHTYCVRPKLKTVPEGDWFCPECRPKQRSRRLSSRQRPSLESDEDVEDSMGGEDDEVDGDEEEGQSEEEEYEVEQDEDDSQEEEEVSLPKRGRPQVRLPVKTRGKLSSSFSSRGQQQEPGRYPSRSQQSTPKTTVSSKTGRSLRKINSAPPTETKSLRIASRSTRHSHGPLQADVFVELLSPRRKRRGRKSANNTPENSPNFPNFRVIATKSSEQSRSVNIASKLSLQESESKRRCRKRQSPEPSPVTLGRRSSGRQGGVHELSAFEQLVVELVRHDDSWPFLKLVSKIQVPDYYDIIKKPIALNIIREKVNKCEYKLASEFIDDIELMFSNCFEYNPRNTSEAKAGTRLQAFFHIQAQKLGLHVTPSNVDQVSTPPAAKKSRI
UniProt P48431: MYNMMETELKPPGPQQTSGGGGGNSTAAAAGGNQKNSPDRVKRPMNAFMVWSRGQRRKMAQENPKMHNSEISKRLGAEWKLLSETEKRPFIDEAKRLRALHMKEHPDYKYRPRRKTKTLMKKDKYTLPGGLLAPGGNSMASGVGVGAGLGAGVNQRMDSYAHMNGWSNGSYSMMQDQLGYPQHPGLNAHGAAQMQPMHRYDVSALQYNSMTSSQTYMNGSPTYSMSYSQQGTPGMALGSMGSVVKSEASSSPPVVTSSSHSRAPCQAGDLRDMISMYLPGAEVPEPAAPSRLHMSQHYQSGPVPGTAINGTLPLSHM
UniProt Q14839: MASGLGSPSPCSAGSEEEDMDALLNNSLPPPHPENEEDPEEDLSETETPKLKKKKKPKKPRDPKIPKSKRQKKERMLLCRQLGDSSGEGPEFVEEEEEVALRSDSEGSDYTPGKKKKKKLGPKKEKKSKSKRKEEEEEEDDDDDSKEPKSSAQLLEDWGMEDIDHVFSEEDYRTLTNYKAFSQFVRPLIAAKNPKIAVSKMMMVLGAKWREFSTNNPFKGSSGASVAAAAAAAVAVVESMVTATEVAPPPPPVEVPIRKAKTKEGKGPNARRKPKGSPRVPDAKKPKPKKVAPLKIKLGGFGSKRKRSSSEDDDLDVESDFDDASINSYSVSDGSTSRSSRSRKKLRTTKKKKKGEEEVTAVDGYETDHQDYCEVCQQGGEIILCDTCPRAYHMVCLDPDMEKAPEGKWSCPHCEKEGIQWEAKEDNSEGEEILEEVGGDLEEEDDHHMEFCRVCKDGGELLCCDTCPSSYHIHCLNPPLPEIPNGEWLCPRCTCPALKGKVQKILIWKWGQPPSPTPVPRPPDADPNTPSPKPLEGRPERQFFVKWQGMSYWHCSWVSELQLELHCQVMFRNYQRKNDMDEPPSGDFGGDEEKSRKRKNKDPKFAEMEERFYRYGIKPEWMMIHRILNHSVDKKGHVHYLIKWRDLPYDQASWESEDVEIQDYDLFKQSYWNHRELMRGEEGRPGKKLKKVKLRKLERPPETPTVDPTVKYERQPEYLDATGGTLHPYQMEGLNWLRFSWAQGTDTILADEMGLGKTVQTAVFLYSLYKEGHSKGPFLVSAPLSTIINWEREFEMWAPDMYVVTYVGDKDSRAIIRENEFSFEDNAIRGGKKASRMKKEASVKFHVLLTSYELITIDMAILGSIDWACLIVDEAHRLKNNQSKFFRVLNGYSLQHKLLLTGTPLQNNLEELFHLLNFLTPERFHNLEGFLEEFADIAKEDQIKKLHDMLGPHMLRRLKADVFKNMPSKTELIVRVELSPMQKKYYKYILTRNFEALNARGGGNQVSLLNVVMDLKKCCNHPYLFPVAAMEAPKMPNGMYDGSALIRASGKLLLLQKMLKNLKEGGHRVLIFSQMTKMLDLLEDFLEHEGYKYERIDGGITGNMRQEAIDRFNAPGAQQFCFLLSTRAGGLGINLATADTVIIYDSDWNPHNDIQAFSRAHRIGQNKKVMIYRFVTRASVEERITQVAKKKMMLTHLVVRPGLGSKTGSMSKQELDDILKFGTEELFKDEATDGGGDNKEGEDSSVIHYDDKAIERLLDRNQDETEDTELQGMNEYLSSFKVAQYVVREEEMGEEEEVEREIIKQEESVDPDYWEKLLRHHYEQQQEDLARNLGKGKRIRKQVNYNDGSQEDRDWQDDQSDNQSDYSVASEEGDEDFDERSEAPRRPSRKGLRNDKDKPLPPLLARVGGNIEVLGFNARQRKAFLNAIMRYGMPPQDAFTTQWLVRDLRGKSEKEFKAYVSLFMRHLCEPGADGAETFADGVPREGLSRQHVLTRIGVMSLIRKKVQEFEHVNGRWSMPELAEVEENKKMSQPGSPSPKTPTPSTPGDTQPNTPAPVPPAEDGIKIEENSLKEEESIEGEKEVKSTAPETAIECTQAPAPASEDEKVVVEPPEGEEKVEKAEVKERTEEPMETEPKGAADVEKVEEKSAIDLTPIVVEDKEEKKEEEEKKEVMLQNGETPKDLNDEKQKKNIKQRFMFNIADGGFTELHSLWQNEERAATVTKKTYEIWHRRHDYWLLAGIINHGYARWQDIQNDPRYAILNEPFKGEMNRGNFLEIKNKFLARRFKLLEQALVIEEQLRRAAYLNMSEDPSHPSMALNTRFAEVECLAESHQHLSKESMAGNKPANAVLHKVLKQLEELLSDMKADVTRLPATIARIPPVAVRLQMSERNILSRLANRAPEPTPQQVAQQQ
UniProt Q13547: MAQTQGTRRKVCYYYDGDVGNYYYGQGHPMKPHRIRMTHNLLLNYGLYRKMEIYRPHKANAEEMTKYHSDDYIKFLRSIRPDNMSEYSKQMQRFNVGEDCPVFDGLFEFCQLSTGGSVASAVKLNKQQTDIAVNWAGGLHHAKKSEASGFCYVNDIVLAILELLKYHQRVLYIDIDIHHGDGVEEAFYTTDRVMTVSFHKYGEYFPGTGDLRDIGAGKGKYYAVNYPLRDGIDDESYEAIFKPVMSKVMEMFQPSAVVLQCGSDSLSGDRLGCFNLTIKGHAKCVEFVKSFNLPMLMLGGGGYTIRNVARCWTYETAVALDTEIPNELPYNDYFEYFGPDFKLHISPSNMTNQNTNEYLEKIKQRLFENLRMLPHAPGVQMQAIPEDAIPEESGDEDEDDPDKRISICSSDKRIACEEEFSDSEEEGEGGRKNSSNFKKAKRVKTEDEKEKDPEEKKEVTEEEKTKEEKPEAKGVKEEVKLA

The target of assay [1] is Flag-BAZ1A (in Cal-27 cells) (UniProt Q9NRL2). As to the kind of experiment: co-IP; stepwise IP-re-IP in Cal-27 cells transfected with Flag-BAZ1A and Myc-SOX2; first round anti-FLAG antibody, second round (re-IP) anti-Myc antibody.
Another assay has as its target FL BAZ1A (in 293T cells) (UniProt Q9NRL2). In words: co-IP; 293T cells transfected with the indicated plasmids, immunoblot of immunoprecipitates; also with or without USP10 plasmids. In general terms: In western blotting, separated proteins are transferred to a membrane and probed.
For assay [2], the target named is USP10 (ubiquitin-specific peptidase 10), endogenous (human (endogenous; cell line not stated, all lines of the paper are human)) (UniProt Q14694). In words: co-IP; endogenous proteins, co-IP and western blotting.
For assay [3], the target named is Flag-BAZ1A (in Cal-27 cells) (UniProt Q9NRL2). As to the kind of experiment: co-IP; Cal-27 cells transfected with Flag-BAZ1A and Myc-SOX2; first round of IP with an anti-FLAG antibody.
The target in assay [4] is Myc-SOX2 (in Cal-27 cells) (UniProt P48431). In words: co-IP; stepwise IP-re-IP in Cal-27 cells transfected with Flag-BAZ1A and Myc-SOX2; first round anti-FLAG antibody, second round (re-IP) anti-Myc antibody.

No constants are given. Whether binding was seen depends on the method and setting. Binding seen in cells or lysates may run through a third protein. Some entries that bind do so weakly or less than the wild type.

Turning to “Myc-SOX2 (in Cal-27 cells) (from UniProt P48431 1-317)”, the binding result in assay [1] is reported as “binds”.
As for “SOX2 (SRY-box transcription factor 2), in 293T cells (from UniProt P48431 1-317)”, the binding result with FL BAZ1A (in 293T cells) is “binds”.
Take “BAZ1A (bromodomain adjacent to zinc finger domain, 1A), endogenous (from UniProt Q9NRL2 1-1556)”: the binding result in assay [2] is “binds”.
With CHD4 (from UniProt Q14839 1-1912), the binding result in assay [3] was “binds”; in assay [4], “no binding”.
In the same order, the values of HDAC1 (from UniProt Q13547 1-482) are “binds” and “no binding”.
